In article PMC11157767 (Molecular Cancer, 2024):

Experiments:
TFG-MET allograft tumors = assay: RNA-sequencing, differential expression and GSEA of TFG-MET allograft tumors; format: in vivo, mouse
Experimental: Error bars display standard error of mean, statistical significance was determined using t-test analysis. (****;p<0.0001, ***;p<0.001, **;p<0.01, *;p<0.05). […] Each dot represents an individual replicate. Error bars display standard error of the mean.
Each dot represents one gene.

TRIM24-MET-r cells = assay: RNA-sequencing, differential expression and GSEA of TRIM24-MET-r cells, 4h in vitro treatment at EC90; format: cell-based, human; conditions: GSEA CRI vs DMSO
[1] = C5 GO BP, GOBP_NCRNA_METABOLIC_PROCESS
[2] = C5 GO BP, GOBP_NCRNA_PROCESSING
[3] = C5 GO BP, GOBP_RIBONUCLEOPROTEIN_COMPLEX_BIOGENESIS
[4] = C5 GO BP, GOBP_RIBOSOME_BIOGENESIS
[5] = C5 GO BP, GOBP_RRNA_METABOLIC_PROCESS
[6] = C5 GO CC, GOCC_ORGANELLE_INNER_MEMBRANE
[7] = C5 GO CC, GOCC_RIBONUCLEOPROTEIN_COMPLEX
[8] = C5 GO CC, GOCC_SMALL_SUBUNIT_PROCESSOME

## CNC(=O)c1ccc(-c2cnc3ncc(Cc4ccc5ncccc5c4)n3n2)cc1F [Capmatinib]
TFG-MET allograft tumors; CAP v Veh, GSEA C5 GO MF, padj 0.961634
  NES, GOMF_ACYL_COA_BINDING: -0.67
TFG-MET allograft tumors; CAP v Veh, GSEA C5 GO MF, padj 0.963266
  NES, GOMF_EXTRACELLULAR_LIGAND_GATED_ION_CHANNEL_ACTIVITY: 0.7829
TFG-MET allograft tumors; CAP v Veh, GSEA C5 GO MF, padj 0.981818
  NES, GOMF_LIGAND_GATED_ION_CHANNEL_ACTIVITY: 0.7437
TFG-MET allograft tumors; CAP v Veh, GSEA C5 GO MF, padj 0.988063
  ES, GOMF_AMIDE_BINDING: 0.1423
TFG-MET allograft tumors; CAP v Veh, GSEA C5 GO MF, padj 0.992017
  ES, GOMF_STRUCTURAL_CONSTITUENT_OF_RIBOSOME: -0.1491
TFG-MET allograft tumors; GSEA CAP.v.Veh, C5 GO CC
  ES GOCC_ENDOSOME: 0.2317
  ES GOCC_INTRINSIC_COMPONENT_OF_POSTSYNAPTIC_MEMBRANE: -0.1574
  NES GOCC_NEURON_TO_NEURON_SYNAPSE: 0.7187
  NES GOCC_SOMATODENDRITIC_COMPARTMENT: -0.6562

## C[C@@H](Oc1cc(-c2cnn(C3CCNCC3)c2)cnc1N)c1c(Cl)ccc(F)c1Cl [Crizotinib]
TRIM24-MET-r cells; [1]
  ES: -0.5781
  NES: -2.393
TRIM24-MET-r cells; [2]
  ES: -0.6028
  NES: -2.457
TRIM24-MET-r cells; [3]
  ES: -0.5835
  NES: -2.418
TRIM24-MET-r cells; [4]
  ES: -0.6641
  NES: -2.6548
TRIM24-MET-r cells; [5]
  ES: -0.6637
  NES: -2.5859
TRIM24-MET-r cells; C5 GO CC, GOCC_NUCLEOLUS
  ES: -0.4309
  NES: -1.875
TRIM24-MET-r cells; [6]
  ES: -0.4185
  NES: -1.742
TRIM24-MET-r cells; C5 GO CC, GOCC_PRERIBOSOME
  ES: -0.7971
  NES: -2.659
TRIM24-MET-r cells; [7]
  ES: -0.4388
  NES: -1.87
TRIM24-MET-r cells; [8]
  ES: -0.8445
  NES: -2.4781

The amount applied is not stated for every result.
